This passage reports cell number change and AC50 results from PubChem BioAssay AID2685 (National Center for Advancing Translational Sciences (NCATS), 2010).

This assay in a line: qHTS Assay for Lipid Storage Modulators in Drosophila S3 Cells.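 On cell number change: cells counted by Cell Tracker Red CMTPX staining in the red channel.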 The conditions noted are these: BODIPY lipid droplet fluorescence, 18-24 h; for cell number change: measured here: cell count max response, cells fed with added oleic acid. Put shortly:
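Drosophila S3 cells got compounds at several concentrations plus oleic acid (400 uM solution). Laser-scanning cytometry with 488 nm excitation read lipid droplets at 500-530 nm and cells at 575-640 nm. Percent activity was relative to 20 uM Triacsin C.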

The mark [1] stands for this setting: measured here: lipid fluorescence (Fed channel) AC50, cells fed with added oleic acid.
[2] abbreviates: measured here: cell number channel AC50, cells fed with added oleic acid.

The list shows a part of the results. The main result of the screen is listed elsewhere. These columns were measured beside it and carry no call. Most of these compounds were active or inconclusive in the main read-out, so they are no random draw. Words in brackets tell the shape of the fitted curve; partial curves, single points and poor fits give uncertain potencies.

On to `CCN1CCN(CC(=O)N/N=C/c2cc(Br)cs2)CC1`, for which the cell number change turned out to be 3.89%.
As usually defined, the AC50 is the midpoint of the concentration-response curve, whichever way the signal moves. Higher therefore signals weaker potency. For the molecule `CC1(C)C(=O)C2(C(=O)NCc3ccccc3)CCC1C2` (centres undefined), the cell number change is -0.86%. In addition, the AC50 under setting [1] is 0.0517 µM [falling, full curve, poor fit].
Consider `Cc1ccc(NC(=S)NCc2ccccc2Cl)c(C)c1`, for which the cell number change is 1.55%.
Turning to `CCN1C(=O)C(CC(=O)Nc2ccc(F)cc2)N(CCCN2CCN(c3ccc(F)cc3)CC2)C1=S` (centres undefined), the cell number change is -64.3%. For the same molecule, under setting [2], the half-maximal activity concentration (AC50) was 29.1 µM [falling, single point]. Moreover, the AC50 under setting [1] was 29.1 µM [falling, single point].
For the molecule `Cn1c(CNC(=O)CNC(=O)c2ccccc2)cc(=O)n(C)c1=O`, the cell number change was 16.7%. Moreover, under setting [1], the concentration at half-maximal activity (AC50) is 20.6 µM [rising, single point].
As to `CCNc1nc(C23CC4CC(CC(C4)C2)C3)cs1`, the cell number change is -49.4%. Also, under setting [2], the concentration at half-maximal activity (AC50) was 23.1 µM [falling, partial curve]. Further, the AC50 under setting [1] was 32.6 µM [falling, partial curve, poor fit].
In the case of `CC[n+]1cc(-c2ccccc2)nc(N2CCOCC2)n1`, the cell number change amounted to 1.73%. Under setting [1], the AC50 was 5.8 µM [rising, single point].
With `COC(=O)c1cc(OC)c(OC)cc1NC(=O)c1ccc(C)cc1`, the cell number change was determined as 17.4%.
On to `CCN(CC(=O)NCc1ccc(F)cc1)S(=O)(=O)c1ccc(C)cc1`, for which the cell number change came to 6.97%.
As for `CCOC(=O)NC1(C(F)(F)F)NC(=O)N(C2CCCCC2)C1=O` (centres undefined), the cell number change was -87.5%. The AC50 under setting [2] is 18.4 µM [falling, single point]. Further, under setting [1], the AC50 was 23.1 µM [falling, single point].
As for `CCOC(=O)[C@H]1[C@H]2COc3ccc(Cl)cc3[C@@H]2N2C(=O)c3cc(Br)ccc3NC(=O)[C@@]12C`, the cell number change is -19%. Also, the AC50 under setting [2] is 3.66 µM [falling, single point]. The concentration at half-maximal activity (AC50) under setting [1] was 5.8 µM [falling, single point].
For the molecule `COc1ccc(NC(=O)N2C3CCCC2CC(NC(=O)C2CC2)C3)cc1` (centres undefined), the cell number change came to 14.2%. The AC50 under setting [1] is 1.16 µM [rising, single point].
`COc1ccc(-c2csc(N(CCCN(C)C)C(=O)c3ccccc3F)n2)cc1`: the cell number change is -20.1%. The AC50 under setting [1] is 29.1 µM [falling, single point].
For the molecule `OCCCn1c(-c2ccccc2)nc(=S)c2c1CCCC2`, the cell number change was -36.5%. Besides, the AC50 under setting [2] is 23.1 µM [falling, single point]. Under setting [1], the AC50 was 18.4 µM [rising, partial curve, poor fit].
Take `CCOC(=O)CNC(=O)Cn1cnc2c(nnn2-c2ccc(C)cc2)c1=O`: the cell number change was -4.03%. Further, the AC50 under setting [1] was 6.51 µM [falling, single point].
For `O=C(O)CNC(=O)CC12CC3CC(CC(C3)C1)C2`, the cell number change was -22.7%. Further, under setting [1], the AC50 was 0.82 µM [falling, full curve, poor fit].
As to `COC(=O)C(Cc1ccccc1)NC(=S)NC(=O)c1ccccc1` (centres undefined), the cell number change is 39.4%. Under setting [2], the AC50 is 4.61 µM [rising, single point]. Also, the AC50 under setting [1] was 29.1 µM [rising, single point].
Take `O=c1c2ccccc2nc(-c2ccco2)n1CCCn1ccnc1`: the cell number change turned out to be 20.7%. The AC50 under setting [1] is 11.6 µM [rising, partial curve].
Turning to `COc1ccc(CCCC(=O)Nc2ccc(F)cc2)cc1`, the cell number change came to 28.8%. Under setting [1], the concentration at half-maximal activity (AC50) is 29.1 µM [rising, single point].
On to `Nc1nc(NC(=O)CCC(=O)O)nn1-c1ccccc1`, for which the cell number change was -12.4%. Moreover, under setting [2], the AC50 is 6.51 µM [falling, single point]. Besides, under setting [1], the AC50 was 3.66 µM [falling, single point].
As to `C=C(C)Cn1c(=O)c(NC(=O)c2ccccc2)c2n(c1=S)CCC2`, the cell number change is 13.7%. The AC50 under setting [1] is 0.58 µM [rising, full curve, poor fit].
With `N#Cc1cc(-c2ccccc2)nn1-c1ccccc1`, the AC50 is, setting by setting: under setting [2], 6.51 µM [rising, single point]; under setting [1], 1.03 µM [rising, full curve].
Turning to `CCOc1ccc(CN2CCNC(=O)C2CC(=O)NC2CCCCCC2)cc1` (centres undefined), the cell number change was 35.6%. Also, under setting [2], the concentration at half-maximal activity (AC50) is 32.6 µM [rising, single point].
In the case of `CCOC(=O)C1CCN(C(=O)CCCCn2c(=O)[nH]c3ccccc3c2=O)CC1`, the cell number change is -28.4%. Also, the AC50 under setting [1] was 29.1 µM [falling, partial curve, poor fit].
As to `COc1cccc(CNc2nc(SC)ncc2CO)c1`, the cell number change turned out to be 1.92%. For the same molecule, the AC50 under setting [1] is 7.31 µM [rising, partial curve].
With `COc1ccc(-c2nc(CN3CCC(C(=O)N4CCc5ccccc54)CC3)c(C)o2)cc1OC`, the cell number change was 4.64%.
`CC1(C(=O)O)C=CC2(CCCCC2)N1C(=O)c1ccccc1` (centres undefined): the cell number change is -38.9%. Also, the concentration at half-maximal activity (AC50) under setting [2] is 14.6 µM [falling, partial curve]. Also, under setting [1], the concentration at half-maximal activity (AC50) is 2.06 µM [rising, full curve].
Take `O=C(CSc1nnc(NC(=O)C2CCC2)s1)Nc1ccccc1Br`: the cell number change was 19.6%. Also, the AC50 under setting [1] is 6.51 µM [rising, single point].
For `CC(=O)c1ccccc1NS(C)(=O)=O`, the cell number change was 19.9%. Also, under setting [1], the AC50 is 11.6 µM [rising, partial curve].
In the case of `COCCCn1cc(C(=O)c2cc(OC)ccc2OCC(=O)Nc2cc(C)on2)cc(C#N)c1=O`, the cell number change was 8.18%. For the same molecule, the AC50 under setting [1] was 11.6 µM [rising, partial curve].
With `CN1CCN(S(=O)(=O)c2ccc3c(c2)OCCO3)CC1`, the cell number change was -52.7%. Besides, the AC50 under setting [2] was 1.46 µM [falling, full curve]. In addition, the half-maximal activity concentration (AC50) under setting [1] was 6.51 µM [falling, single point].
As for `COc1ccc(NC(=O)c2cccc(S(=O)(=O)N(C)c3ccccc3)c2)cn1`, the cell number change was -29.1%. Also, under setting [2], the AC50 is 7.31 µM [falling, partial curve].
`O=C1Nc2ccccc2C1(O)Cc1ccncc1` (centres undefined): the AC50 under setting [1] was 14.6 µM [falling, partial curve].
On to `COc1ccc(OC)c(NC(=O)COC(=O)c2c3c(nc4ccccc24)CCCC3)c1`, for which the cell number change came to 23.5%. Further, the AC50 under setting [2] was 4.61 µM [rising, full curve, poor fit]. Moreover, the AC50 under setting [1] is 1.64 µM [rising, partial curve].
As to `Cc1ccc(S(=O)(=O)NCCCN2CCCC2)cc1`, the AC50 under setting [1] is 29.1 µM [rising, single point].
In the case of `O=C(CSc1nc2ncccc2[nH]1)Nc1ccccc1-c1ccccc1`, the cell number change is -12.5%. In addition, the AC50 under setting [1] was 29.1 µM [falling, single point].
Regarding `O=C(/N=C1\NC(=O)C(F)(C(F)(F)F)S1)NC1CCCCC1` (centres undefined), under setting [2], the AC50 is 1.46 µM [falling, partial curve, poor fit].
In the case of `CCOc1ccc(N(C(=O)CNC(=O)c2ccco2)C(C(=O)NCC2CCCO2)c2ccccc2)cc1` (centres undefined), the cell number change is -7.69%.
On to `O=C(NC1(C(F)(F)F)NC(=O)N(C2CCCCC2)C1=O)c1ccco1` (centres undefined), for which the cell number change was -3.51%. For the same molecule, the AC50 under setting [1] was 0.731 µM [falling, single point].
For `CC1CCCCC12NC(=O)N(CC(=O)NCCc1ccccn1)C2=O` (centres undefined), the cell number change worked out at 0.182%. Also, under setting [2], the concentration at half-maximal activity (AC50) is 0.164 µM [falling, full curve, poor fit]. The AC50 under setting [1] is 0.731 µM [falling, partial curve, poor fit].
Consider `CCOc1ccc(N(CC(=O)NC2CCCCCC2)S(=O)(=O)c2c(C)noc2C)cc1`, for which the cell number change turned out to be 0.781%. For the same molecule, under setting [1], the AC50 was 6.51 µM [falling, single point].
Take `Nn1cnc2c([nH]c3ccccc32)c1=O`: the cell number change was -8.43%. In addition, the AC50 under setting [1] is 8.2 µM [falling, single point].
For `O=C(c1ccccc1F)N1CCN(S(=O)(=O)c2ccc3c(c2)OCCO3)CC1`, the cell number change came out at 38.2%. Moreover, under setting [2], the AC50 was 16.4 µM [rising, single point].
As to `CCN1C(=S)SC(=O)C1=C1C=C(C)N(Cc2ccco2)C(C)=C1`, the cell number change was -15.9%. Besides, under setting [1], the AC50 was 14.6 µM [falling, partial curve, poor fit].
For the molecule `COc1ccc(Cc2nc3ccc(C(=O)NCC4COCCO4)cc3o2)cc1OC` (centres undefined), the cell number change stood at 3.88%. In addition, the AC50 under setting [1] was 4.61 µM [falling, full curve].
`CC1Cc2cc(S(=O)(=O)N3CCC(C(=O)N(C)Cc4ccccc4)CC3)ccc2N1C(=O)C1CC1` (centres undefined): the cell number change is -5.27%. For the same molecule, under setting [1], the AC50 is 6.51 µM [falling, single point].
`O=C(Nc1ccc2c(c1)OCO2)C(c1ccc(Cl)cc1)N1CCN(C(=O)c2ccco2)CC1` (centres undefined): under setting [1], the AC50 was 0.184 µM [rising, full curve, poor fit].
With `O=C1CN(C(=O)c2ccco2)c2ccccc2N1`, the cell number change is -78.5%. Under setting [2], the half-maximal activity concentration (AC50) is 7.31 µM [falling, partial curve]. Besides, under setting [1], the AC50 was 23.1 µM [falling, partial curve].
Consider `O=c1[nH]c2cc([N+](=O)[O-])c([N+](=O)[O-])cc2[nH]c1=O`, for which the cell number change is -39.7%. In addition, the AC50 under setting [2] was 29.1 µM [falling, single point]. Moreover, under setting [1], the AC50 was 0.82 µM [rising, single point].
Regarding `Cc1ccc(F)cc1CNC(=O)C1CCC(=O)N(CCCN2CCCC2=O)C1` (centres undefined), the cell number change was -3.18%.
For the molecule `Cc1ccccc1OCc1nc(-c2ccc(Br)o2)no1`, the cell number change came to 87.8%. Moreover, under setting [2], the AC50 was 4.11 µM [rising, full curve]. Further, the AC50 under setting [1] is 5.17 µM [rising, partial curve].
Turning to `O=C1C2C3C=CC(C3)C2C(=O)N1CN(Cc1ccccc1)CN1C(=O)C2C3C=CC(C3)C2C1=O` (centres undefined), the cell number change is -2.57%. The AC50 under setting [1] was 18.4 µM [rising, partial curve, poor fit].
As for `CC(=O)Nc1ccc(NC(=O)C2CCN(C(=O)NC3CCCCC3)CC2)cc1`, the cell number change turned out to be 36.8%. Moreover, the AC50 under setting [2] is 20.6 µM [rising, single point].
With `COCCN1Cc2cccc(C(=O)Nc3c(C)cc(C)cc3C)c2C1=O`, the cell number change was -13.8%. Besides, the AC50 under setting [1] is 20.6 µM [rising, partial curve, poor fit].
With `O=C(Nc1ccn(CC(=O)N2CCN(c3ccccn3)CC2)c(=O)n1)OCc1ccccc1`, the cell number change is -2.46%. For the same molecule, the AC50 under setting [2] is 0.164 µM [falling, single point]. Further, the AC50 under setting [1] was 0.164 µM [falling, full curve, poor fit].
On to `CCCCCN(C(=O)CCC(=O)OCC(=O)c1ccc(C(C)(C)C)cc1)c1c(N)n(CCCC)c(=O)[nH]c1=O`, for which the cell number change was -50%. For the same molecule, the AC50 under setting [2] is 29.1 µM [falling, single point].
Regarding `CCOc1cc(/C=C2/C(=O)ON=C2C)ccc1OCc1ccccc1`, the cell number change is -52.5%. Moreover, under setting [2], the AC50 was 23.1 µM [falling, single point]. Under setting [1], the AC50 is 29.1 µM [falling, single point].
